{"sequences": {"note": "By UniProt entry, the sequences of proteins in these tests, tags left out.", "UniProt O00308": "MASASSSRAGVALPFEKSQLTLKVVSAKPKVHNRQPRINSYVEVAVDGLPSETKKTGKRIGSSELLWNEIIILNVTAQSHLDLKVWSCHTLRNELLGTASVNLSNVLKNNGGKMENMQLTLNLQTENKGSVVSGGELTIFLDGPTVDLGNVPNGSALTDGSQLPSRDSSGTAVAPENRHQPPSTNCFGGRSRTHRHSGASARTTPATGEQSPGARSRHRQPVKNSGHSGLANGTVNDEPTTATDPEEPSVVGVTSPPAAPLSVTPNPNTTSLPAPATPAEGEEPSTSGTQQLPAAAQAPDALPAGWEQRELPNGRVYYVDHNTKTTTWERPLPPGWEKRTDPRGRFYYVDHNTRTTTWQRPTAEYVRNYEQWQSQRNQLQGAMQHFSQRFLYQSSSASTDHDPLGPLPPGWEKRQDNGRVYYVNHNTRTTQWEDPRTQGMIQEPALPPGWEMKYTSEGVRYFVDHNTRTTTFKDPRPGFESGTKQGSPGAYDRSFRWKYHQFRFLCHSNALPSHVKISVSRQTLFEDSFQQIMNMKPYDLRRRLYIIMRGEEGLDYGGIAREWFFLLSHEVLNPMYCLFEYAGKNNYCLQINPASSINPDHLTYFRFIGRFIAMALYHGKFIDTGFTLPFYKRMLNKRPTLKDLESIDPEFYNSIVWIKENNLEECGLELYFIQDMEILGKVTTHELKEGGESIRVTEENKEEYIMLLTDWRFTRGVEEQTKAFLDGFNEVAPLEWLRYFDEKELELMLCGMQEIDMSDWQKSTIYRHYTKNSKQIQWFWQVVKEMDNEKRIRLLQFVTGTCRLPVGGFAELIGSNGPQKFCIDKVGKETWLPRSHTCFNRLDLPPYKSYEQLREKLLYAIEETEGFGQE"}, "source": "paper PMC4187731", "about": "“WWP2-WWP1 Ubiquitin Ligase Complex Coordinated by PPM1G Maintains the Balance between Cellular p73 and ΔNp73 Levels” (Molecular and Cellular Biology, 2014)", "binders": {"B1": {"name": "GST-p73 (natural protein, UniProt O15350 1-636, looked up)", "chain": "MAQSTATSPDGGTTFEHLWSSLEPDSTYFDLPQSSRGNNEVVGGTDSSMDVFHLEGMTTSVMAQFNLLSSTMDQMSSRAASASPYTPEHAASVPTHSPYAQPSSTFDTMSPAPVIPSNTDYPGPHHFEVTFQQSSTAKSATWTYSPLLKKLYCQIAKTCPIQIKVSTPPPPGTAIRAMPVYKKAEHVTDVVKRCPNHELGRDFNEGQSAPASHLIRVEGNNLSQYVDDPVTGRQSVVVPYEPPQVGTEFTTILYNFMCNSSCVGGMNRRPILIIITLEMRDGQVLGRRSFEGRICACPGRDRKADEDHYREQQALNESSAKNGAASKRAFKQSPPAVPALGAGVKKRRHGDEDTYYLQVRGRENFEILMKLKESLELMELVPQPLVDSYRQQQQLLQRPSHLQPPSYGPVLSPMNKVHGGMNKLPSVNQLVGQPPPHSSAATPNLGPVGPGMLNNHGHAVPANGEMSSSHSAQSMVSGSHCTPPPPYHADPSLVSFLTGLGCPNCIEYFTSQGLQSIYHLQNLTIEDLGALKIPEQYRMTIWRGLQDLKQGHDYSTAQQLLRSSNAATISIGGSGELQRQRVMEAVHFRVRHTITIPNRGGPGGGPDEWADFGFDLPDCKARKQPIKEEFTEAEIH", "notes": "also called glutathione S-transferase (GST)–p73"}, "B2": {"name": "PPM1G (endogenous) (enzyme, UniProt O15355 1-546)", "chain": "MGAYLSQPNTVKCSGDGVGAPRLPLPYGFSAMQGWRVSMEDAHNCIPELDSETAMFSVYDGHGGEEVALYCAKYLPDIIKDQKAYKEGKLQKALEDAFLAIDAKLTTEEVIKELAQIAGRPTEDEDEKEKVADEDDVDNEEAALLHEEATMTIEELLTRYGQNCHKGPPHSKSGGGTGEEPGSQGLNGEAGPEDSTRETPSQENGPTAKAYTGFSSNSERGTEAGQVGEPGIPTGEAGPSCSSASDKLPRVAKSKFFEDSEDESDEAEEEEEDSEECSEEEDGYSSEEAENEEDEDDTEEAEEDDEEEEEEMMVPGMEGKEEPGSDSGTTAVVALIRGKQLIVANAGDSRCVVSEAGKALDMSYDHKPEDEVELARIKNAGGKVTMDGRVNGGLNLSRAIGDHFYKRNKNLPPEEQMISALPDIKVLTLTDDHEFMVIACDGIWNVMSSQEVVDFIQSKISQRDENGELRLLSSIVEELLDQCLAPDTSGDGTGCDNMTCIIICFKPRNTAELQPESGKRKLEEVLSTEGAEENGNSDKKKKAKRD"}}, "biological_target": "SFB-WWP2 (WWP2 triple tagged with S-protein/Flag/SBP) (UniProt O00308)", "assay": "affinity purification with mass spectrometry; tandem affinity purification of SFB-WWP2 from stable 293T cells: NETN lysate on streptavidin-Sepharose, biotin elution, S-protein-agarose, SDS-PAGE, mass spectrometry", "note": "No constants are given. Whether binding was seen depends on the method and setting. Binding seen in cells or lysates may run through a third protein. A yes stands for co-enrichment or nearness to the bait. Other partners may have been found."}
{"binder": "B1", "values": [{"measurement": "binding", "result": "binds"}]}
{"binder": "B2", "values": [{"measurement": "binding", "result": "binds"}]}
